Experiments:
Conditions in all cases: ratio of HC50 over geometric mean MIC
Pseudomonas aeruginosa = type: cell-based
Acinetobacter baumannii = type: cell-based
S. aureus = experiment: MIC geometric mean, 20 isolates of S. aureus; type: cell-based, Staphylococcus aureus

Row | Structure (SMILES) | Eukaryotic/Prokaryotic Cell Selectivity Factor hRBC/P. aeruginosa (Pseudomonas aeruginosa) | Eukaryotic/Prokaryotic Cell Selectivity Factor hRBC/A. baumannii (Acinetobacter baumannii) | Eukaryotic/Prokaryotic Cell Selectivity Factor hRBC/S. aureus (S. aureus)
1 | CSCC[C@@H](NC(=O)[C@@H](Cc1c[nH]c2ccccc12)NC(=O)[C@@H](CC(C)C)NC(=O)[C@@H](C)N)C(=O)N[C@@H](C(=O)N[C@H](CC(C)C)C(=O)N[C@H](CC(C)C)C(=O)N[C@H](CCCCN)C(=O)N[C@H](CCCCN)C(=O)N[C@@H](C(=O)N[C@H](CC(C)C)C(=O)N[C@H](CCCCN)C(=O)N[C@H](C)C(=O)N[C@H](C)C(=O)N[C@H](C)C(=O)N[C@H](CCCCN)C(=O)N[C@H](C)C(=O)N[C@H](CC(C)C)C(=O)N[C@H](CC(N)=O)C(=O)N[C@H](C)C(=O)N[C@@H](C(=O)N[C@H](CC(C)C)C(=O)N[C@@H](C(=O)NCC(=O)N[C@H](C)C(=O)N[C@H](CC(N)=O)C(=O)N[C@H](C)C(N)=O)C(C)C)C(C)C)C(C)C)[C@H](C)O [D-Dermaseptin S4, reference compound] | 0.05 | 0.3 | 0.1
2 | CC[C@@H](C)[C@@H](NC(=O)[C@@H](Cc1c[nH]cn1)NC(=O)[C@@H](Cc1c[nH]cn1)NC(=O)[C@@H](Cc1ccccc1)NC(=O)[C@H](N)Cc1ccccc1)C(=O)N[C@H](Cc1ccccc1)C(=O)N[C@H](CCCNC(=N)N)C(=O)NCC(=O)N[C@H](CCCCN)C(=O)N[C@@H](C(=O)N[C@H](Cc1c[nH]cn1)C(=O)N[C@@H](C(=O)NCC(=O)N[C@H](CCCCN)C(=O)N[C@@H](C(=O)N[C@@H](C(=O)N[C@H](Cc1c[nH]cn1)C(=O)N[C@H](CCCNC(=N)N)C(=O)N[C@H](CC(C)C)C(=O)N[C@@H](C(=O)N[C@@H](C(=O)NCC(N)=O)[C@H](C)O)C(C)C)[C@H](C)CC)[C@H](C)O)C(C)C)C(C)C [D-Piscidin 1 I9K] | 32 | 32.6 | 0.5
3 | CC[C@@H](C)[C@@H](NC(=O)CNC(=O)[C@@H](CCCNC(=N)N)NC(=O)[C@@H](Cc1ccccc1)NC(=O)[C@H](NC(=O)[C@@H](Cc1c[nH]cn1)NC(=O)[C@@H](Cc1c[nH]cn1)NC(=O)[C@@H](Cc1ccccc1)NC(=O)[C@H](N)Cc1ccccc1)[C@H](C)CC)C(=O)N[C@@H](C(=O)N[C@H](Cc1c[nH]cn1)C(=O)N[C@H](CCCCN)C(=O)NCC(=O)N[C@H](CCCCN)C(=O)N[C@@H](C(=O)N[C@@H](C(=O)N[C@H](Cc1c[nH]cn1)C(=O)N[C@H](CCCNC(=N)N)C(=O)N[C@H](CC(C)C)C(=O)N[C@@H](C(=O)N[C@@H](C(=O)NCC(N)=O)[C@H](C)O)C(C)C)[C@H](C)CC)[C@H](C)O)C(C)C [D-Piscidin 1 V12K] | 2.1 | 12.5 | 0.2
4 | CC[C@@H](C)[C@@H](NC(=O)CNC(=O)[C@@H](CCCNC(=N)N)NC(=O)[C@@H](Cc1ccccc1)NC(=O)[C@H](NC(=O)[C@@H](Cc1c[nH]cn1)NC(=O)[C@@H](Cc1c[nH]cn1)NC(=O)[C@@H](Cc1ccccc1)NC(=O)[C@H](N)Cc1ccccc1)[C@H](C)CC)C(=O)N[C@@H](C(=O)N[C@H](Cc1c[nH]cn1)C(=O)N[C@@H](C(=O)NCC(=O)N[C@H](CCCCN)C(=O)N[C@@H](C(=O)N[C@@H](C(=O)N[C@H](Cc1c[nH]cn1)C(=O)N[C@H](CCCNC(=N)N)C(=O)N[C@H](CC(C)C)C(=O)N[C@@H](C(=O)N[C@@H](C(=O)NCC(N)=O)[C@H](C)O)C(C)C)[C@H](C)CC)[C@H](C)O)C(C)C)C(C)C [D-Piscidin 1, reference compound] | 0.09 | 0.6 | 0.6

Source: patent US20190202877A1, “DERMASEPTIN-TYPE AND PISCIDIN-TYPE ANTIMICROBIAL PEPTIDES” (THE REGENTS OF THE UNIVERSITY OF COLORADO, a body corporate, priority 2014, published 2019)
